Results: patent US10501421B1, “Substituted benzimidazoles as modulators of Ras signaling” (VANDERBILT UNIVERSITY, priority 2017, dated 2019)
Structures were worked out from names or drawings and are uncertain.

Amino acid sequences for entries named in this document (tags omitted). Residues count along the entry.
UniProt Q07889, 564-1049 limits assumed: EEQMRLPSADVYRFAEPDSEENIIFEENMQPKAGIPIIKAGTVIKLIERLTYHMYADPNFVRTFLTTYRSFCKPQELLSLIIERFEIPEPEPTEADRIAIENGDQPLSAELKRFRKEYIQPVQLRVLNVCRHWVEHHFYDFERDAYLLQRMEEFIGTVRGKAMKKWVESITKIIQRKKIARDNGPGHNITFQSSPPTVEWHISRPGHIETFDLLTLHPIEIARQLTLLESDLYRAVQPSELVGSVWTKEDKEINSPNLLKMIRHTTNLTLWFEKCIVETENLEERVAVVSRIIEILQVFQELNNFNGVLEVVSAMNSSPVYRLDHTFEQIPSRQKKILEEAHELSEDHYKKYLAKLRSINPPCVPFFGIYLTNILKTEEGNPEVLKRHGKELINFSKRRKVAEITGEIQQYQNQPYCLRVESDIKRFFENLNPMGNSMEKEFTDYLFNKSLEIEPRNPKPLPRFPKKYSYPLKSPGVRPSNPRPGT
UniProt P01112, 1-166 partner limits assumed: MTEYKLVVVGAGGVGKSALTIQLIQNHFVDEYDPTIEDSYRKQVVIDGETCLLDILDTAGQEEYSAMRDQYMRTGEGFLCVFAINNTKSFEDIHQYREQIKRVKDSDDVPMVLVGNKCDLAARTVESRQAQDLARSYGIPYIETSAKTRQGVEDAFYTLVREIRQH

Experiments:
[1] = system: H727 lung cancer cell lines (G12V K-Ras mutation); test: Inhibition of cancer cell proliferation (CellTiter-Glo); assay type: cell-based; conditions: read-out: Cell proliferation activity (H727 cancer cell line proliferation IC50), H727 cells, 3 days treatment, tested form: trifluoroacetate
Protocol: Compounds of the present invention were measured for their ability to kill H727 lung cancer cell lines, which contain a G12V K-Ras mutation. Cell proliferation experiments were conducted in 96-well plates. Cells were plated at 1000 cells/well, incubated overnight, followed by treatment with a dose range of compound for 3 days at 37° C. Cell proliferation was assessed using a CellTiter-Glo assay (Promega) according to the manufacturer's protocol. Data were normalized to DMSO control. IC50 values were determined using a four-parameter dose-response (variable slope) equation. These assays are performed in a manner analogous to the assay disclosed in: Burns, M. C.; Sun, Q.; Daniels, R. N.; Camper, D. V.; Kennedy, J. P.; Phan, J.; Olejniczak, E. O.; Lee, T.; Waterson, A. G.; Rossanese, O. W.; Fesik, S. W. “Approach for targeting Ras with small molecules that activate SOS-mediated nucleotide exchange” Proc. Natl. Acad. Sci. 2014; 11(9): 3401-3406. PMCID: PMC3948241.

[2] = molecular target: Ras GEF SOS (Son of Sevenless) (Homo sapiens, UniProt Q07889); test: SOS-mediated nucleotide exchange on Ras (BODIPY-GDP fluorescence); assay type: biochemical; conditions: read-out: Nucleotide exchange activity (nucleotide exchange EC50); SOS-mediated exchange of BODIPY-GDP for GTP on Ras; tested form: trifluoroacetate

In the case of `Fc1ccc(Cn2c(N3CCNCC3)nc3c(-c4ccccc4F)cccc32)cc1Cl`, the IC50 [1] is reported as 5 to 20 µM and the EC50 [2] is reported as 1 to 5 µM.
